Consider 21 compounds from the supplement of paper PMC6690932.

Several values for one entry are separate records, joined by “and”; a condition that tells them apart may be missing. Equal values may be shown once. Where a name gives a salt, the structure may show the parent alone. This is one part of the list. Most values come without repeats; read them as rough.

The subject of the experiment is HeLa. The experiment is described as follows: lysosomal-METRIQ red/green fluorescence ratio relative to DMSO (ratio to DMSO); higher = higher lysosomal activity / lysosomal biogenesis. To be noted: 10 µM; 12 h.
Regarding `CC[C@H](C)C(=O)O[C@H]1C[C@@H](C)C=C2C=C[C@H](C)[C@H](CC[C@@H]3C[C@@H](O)CC(=O)O3)[C@H]21` [Lovastatin], the “lysosomal-METRIQ red/green fluorescence ratio” value came out at 1.1.

`CC/C(=C(\c1ccccc1)c1ccc(OCCN(C)C)cc1)c1ccccc1` [Tamoxifen, citrate]: the “lysosomal-METRIQ red/green fluorescence ratio” value turned out to be 1.

With `Cc1c2oc3c(C)ccc(C(=O)N[C@@H]4C(=O)N[C@H](C(C)C)C(=O)N5CCC[C@H]5C(=O)N(C)CC(=O)N(C)[C@@H](C(C)C)C(=O)O[C@@H]4C)c3nc-2c(C(=O)N[C@@H]2C(=O)N[C@H](C(C)C)C(=O)N3CCC[C@H]3C(=O)N(C)CC(=O)N(C)[C@@H](C(C)C)C(=O)O[C@@H]2C)c(N)c1=O` [Actinomycin D], the “lysosomal-METRIQ red/green fluorescence ratio” value amounted to 1.19.

Turning to `C[C@]1(O)C[C@@H](c2nc(-c3ccc4ccc(-c5ccccc5)nc4c3)c3c(N)nccn32)C1`, the “lysosomal-METRIQ red/green fluorescence ratio” value is 0.909.

Take `CCOC(=O)C1=C(C)NC(=S)NC1c1cccc(O)c1` (stereo unspecified) [Monastrol]: the “lysosomal-METRIQ red/green fluorescence ratio” value amounted to 1.

In the case of `COc1ccc([C@@H]2Sc3ccccc3N(CCN(C)C)C(=O)[C@@H]2OC(C)=O)cc1` [Diltiazem], the “lysosomal-METRIQ red/green fluorescence ratio” value stood at 1.04.

Regarding `Cc1ccc(NC(=O)c2cccc(N(C)C)c2)cc1NC(=O)c1ccc(O)cc1`, the “lysosomal-METRIQ red/green fluorescence ratio” value was 1.19.

Consider `Clc1ccccc1CNCC1CCC(CNCc2ccccc2Cl)CC1` (stereo unspecified), for which the “lysosomal-METRIQ red/green fluorescence ratio” value is 0.682.

Take `CN(C)c1ccccc1CN1CCCN(Cc2ccccc2N(C)C)C1c1ccncc1`: the “lysosomal-METRIQ red/green fluorescence ratio” value came out at 1.

For the compound `N#C/C(=C\c1ccc2oc(=O)[nH]c2c1)C(=O)c1ccc(O)c(O)c1`, the “lysosomal-METRIQ red/green fluorescence ratio” value was determined as 0.938.

Regarding `Nc1cccc2c1CN(C1CCC(=O)NC1=O)C2=O` (stereo unspecified) [lenalidomide], the “lysosomal-METRIQ red/green fluorescence ratio” value was determined as 0.818.

For `COC(=O)c1ccc(NCc2cc(O)ccc2O)cc1`, the “lysosomal-METRIQ red/green fluorescence ratio” value was 1.

Take `CN(Cc1cnc2nc(N)nc(N)c2n1)c1ccc(C(=O)N[C@@H](CCC(=O)O)C(=O)O)cc1` [Methotrexate]: the “lysosomal-METRIQ red/green fluorescence ratio” value was 1.29.

As for `NC(=O)c1ccc(I)c([N+](=O)[O-])c1` [BSI-201 (Iniparib)], the “lysosomal-METRIQ red/green fluorescence ratio” value amounted to 1.

`O=c1c(-c2ccc(O)cc2)coc2cc(O)cc(O)c12` [Genistein]: the “lysosomal-METRIQ red/green fluorescence ratio” value worked out at 1.1.

Regarding `CC(C)(C)c1cc(O)ccc1O` [t-Butylhydroquinone (BHQ)], the “lysosomal-METRIQ red/green fluorescence ratio” value was determined as 1.16.

As to `COc1cc([C@@H]2c3cc4c(cc3[C@@H](O[C@@H]3O[C@@H]5CO[C@@H](C)O[C@H]5[C@H](O)[C@H]3O)[C@H]3COC(=O)[C@H]23)OCO4)cc(OC)c1O` [Etoposide (VP-16)], the “lysosomal-METRIQ red/green fluorescence ratio” value stood at 1.16.

Take `Cc1cc([N+](=O)[O-])ccc1NS(=O)(=O)c1cc(Cl)ccc1Cl`: the “lysosomal-METRIQ red/green fluorescence ratio” value was found to be 1.09.

Take `CCCCCCCCCCC[C@@H](C[C@@H]1OC(=O)[C@H]1CCCCCC)OC(=O)[C@H](CC(C)C)NC=O` [orlistat]: the “lysosomal-METRIQ red/green fluorescence ratio” value was found to be 0.955.

Take `NC(=O)c1ccc(-c2nc(-c3ccccn3)c(-c3ccc4c(c3)OCO4)[nH]2)cc1`: the “lysosomal-METRIQ red/green fluorescence ratio” value is 1 and 1.06.

As to `COc1nccc(-c2c(-c3ccc(F)cc3)ncn2C2CCC(O)CC2)n1` (stereo unspecified), the “lysosomal-METRIQ red/green fluorescence ratio” value was 1.
